# Laboratory results reported in patent US8034799B2, “Preventing and/or treating cardiovascular disease and/or associated heart failure” (Philera New Zealand Limited, priority 2002, dated 2011).
# Where two headings read alike, the source gives them in different places.
# Tested on: STZ diabetic and normal Wistar rats
# Details: mean ± SD
smiles,measurement,setting,value
"NCCNCCNCCN [trientine, N,N′-Bis(2-aminoethyl)-1,2-ethanedi-amine]",Final weight,"STZ/D7: diabetic rats, trientine 50 mg/L in drinking water weeks 7-13",290 ± 56 g
same,Final weight,"Sham/D7: non-diabetic rats, trientine in drinking water weeks 7-13",563 ± 17 g
